The record followed here is doi:10.1101/2023.08.20.554024.

The assay addresses T1, SynOCP1 WT apoform (Synechocystis sp. PCC 6803) (UniProt P74102).
T1 sequence: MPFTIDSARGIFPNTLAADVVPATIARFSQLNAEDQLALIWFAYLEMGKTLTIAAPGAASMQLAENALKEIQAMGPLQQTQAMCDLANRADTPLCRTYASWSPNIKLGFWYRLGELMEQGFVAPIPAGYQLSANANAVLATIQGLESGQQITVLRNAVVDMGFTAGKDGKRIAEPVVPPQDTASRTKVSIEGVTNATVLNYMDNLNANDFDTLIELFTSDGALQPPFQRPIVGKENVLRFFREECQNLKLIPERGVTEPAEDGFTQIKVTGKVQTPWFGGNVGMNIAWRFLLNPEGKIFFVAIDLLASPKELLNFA
The assay can be described thus: SEC. (In general: Size exclusion chromatography separates by hydrodynamic size, large species first.)

Results are given in words; binding and its absence hold for the method and conditions named. Some entries that bind do so weakly or less than the wild type.

B1: Fluorescence Recovery Protein from Synechocystis sp. PCC 6803 (protein, UniProt P74103 1-109)
chain: MLQTAEAPWSQAETQSAHALFRKAYQRELDGLLATVQAQASQITQIDDLWKLHDFLSAKRHEIDGKYDDRQSVIIFVFAQLLKEGLVQAEELTFLAADKQSKIKALARL
With B1, the binding result is “binds”.
